Test results published in US20140336365A1, “CDR REGIONS OF MONOCLONAL ANTIBODY THAT ANTAGONIZE SPHINOGOSINE 1-PHOSPHATE AND RELATED METHODS” (priority 2011, published 2014).
These are yes or no findings as the source states them, for the method shown. Some binding calls cover weakened binding; strength is not graded here.

By UniProt entry, the sequences of proteins in these tests, tags left out.
UniProt Q99500: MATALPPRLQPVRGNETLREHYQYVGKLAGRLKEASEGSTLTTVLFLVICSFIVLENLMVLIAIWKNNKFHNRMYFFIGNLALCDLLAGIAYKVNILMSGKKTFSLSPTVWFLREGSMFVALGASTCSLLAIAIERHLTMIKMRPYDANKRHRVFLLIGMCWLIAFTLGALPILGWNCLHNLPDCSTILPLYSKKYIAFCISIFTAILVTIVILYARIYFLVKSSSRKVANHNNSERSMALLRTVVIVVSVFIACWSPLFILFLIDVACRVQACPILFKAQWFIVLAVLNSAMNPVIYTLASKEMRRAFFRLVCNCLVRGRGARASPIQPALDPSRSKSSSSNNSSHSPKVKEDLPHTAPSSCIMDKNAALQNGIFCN

Assays:
[1] = target: Full-length S1P3 protein fused to either a V5 epitope or enhanced green fluorescent protein (EGFP) on its C-terminal end, expressed on HEK293 cells (UniProt Q99500); assay: immunocytochemistry on S1P3-transfected HEK293 cells
[2] = target: Full-length S1P3 protein fused to either a V5 epitope or enhanced green fluorescent protein (EGFP) on its C-terminal end, expressed on HEK293 cells (UniProt Q99500); assay: immunocytochemistry of hybridoma supernatants on S1P3-transfected HEK293 cells

B1: Monoclonal antibody Mab7H9 produced by hybridoma EDDbeta7H9 (ATCC PTA-9973) (antibody, V domains shown)
VH: QVTLKESGPGILQPSQTLSLTCSFSGFSLSTSNMGVGWIRQPSGKGLEWLLHILWNDNKHYNPALKSRLTISKDTYKNQVFLKIANVDTADTATYYCARILYRSNYYVMDYWGQGTSVTVSS
VL: DIVMTQSHKFMSTSVGDRVSITCKASQDVSTGVVWYQQKEGQSPKLLIYSASYRYTGVPNRFTGSGSGTDFTFTISGVQAEDLAVYYCQQHYSSPTFGGGTKLEIKR
- binding [1]: binds
- binding [2]: binds
